{"source": "patent US12037372B2", "about": "“Bioactive peptides derived from snakes” (Universiteit Leiden, priority 2018, dated 2024)", "key": {"[1]": {"tested_on": "A. Baumannii", "experiment": "Killing of A. baumannii in BM2 medium (control)", "type": "cell-based, Acinetobacter baumannii", "experimental": "As a control, the ability of these peptides to kill A. baumannii in BM2 medium was assessed."}, "[2]": {"tested_on": "A. baumannii RUH 875 biofilm formation", "experiment": "Biofilm prevention assay (crystal violet)", "type": "cell-based, Acinetobacter baumannii", "settings": "BM2 medium, 24 hours"}}, "note": "Some of these results come from one statement about several compounds together. Not every detail of the peptide structures is certain; ends, links or a residue may be inferred.", "data": [{"sequence": "KRFKKFFKKLKNNVKKRVKKFFRKPRVIGVTIPF [SP4]", "values": [{"measurement": "peptide concentration that eliminates all bacteria", "setting": "[1]", "result": "≥ 1.6", "unit": "µM"}, {"measurement": "peptide concentration that completely prevented biofilm formation", "setting": "[2]", "result": "≥ 6.4", "unit": "µM"}]}, {"sequence": "KRFKKFFRKVKKGVHRYFKKNKFYIAATIPYYG [SP27]", "values": [{"measurement": "peptide concentration that eliminates all bacteria", "setting": "[1]", "result": "≥ 1.6", "unit": "µM"}, {"measurement": "peptide concentration that completely prevented biofilm formation", "setting": "[2]", "result": "≥ 6.4", "unit": "µM"}]}]}
